The list shows a part of the results. The data scatter; read single values as rough.
compound: ClCC(=O)N[C@H]1CCCc2ccccc12; test: log2 mean competition ratio of IA-DTB cysteine labelling (DMSO/compound) (log2 ratio); higher = stronger cysteine engagement by compound; conditions: 50 µM; treatment time: 4 h; cell line lysate: HEK293T
Protocol: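 IA-DTB competitive cysteine chemoproteomics in HEK293T RIPA lysate. Lysates were treated with compound 29 or 30 at 50 or 200 µM for 4 h, then IA-DTB (500 µM, 1 h), trypsin-digested, NeutrAvidin-enriched and analysed by diaPASEF. Competition ratio = intensity DMSO / intensity compound (n=4 treated, n=64 DMSO); binding: mean log2 CR ≥ 1 and p ≤ 0.05 plus QC filters. Target is the cysteine site.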

Amino acid sequences for entries named in this document (tags omitted). A change or cut given only in a name is not applied to a line headed by its entry. Residues count along the entry.
UniProt Q8WY36: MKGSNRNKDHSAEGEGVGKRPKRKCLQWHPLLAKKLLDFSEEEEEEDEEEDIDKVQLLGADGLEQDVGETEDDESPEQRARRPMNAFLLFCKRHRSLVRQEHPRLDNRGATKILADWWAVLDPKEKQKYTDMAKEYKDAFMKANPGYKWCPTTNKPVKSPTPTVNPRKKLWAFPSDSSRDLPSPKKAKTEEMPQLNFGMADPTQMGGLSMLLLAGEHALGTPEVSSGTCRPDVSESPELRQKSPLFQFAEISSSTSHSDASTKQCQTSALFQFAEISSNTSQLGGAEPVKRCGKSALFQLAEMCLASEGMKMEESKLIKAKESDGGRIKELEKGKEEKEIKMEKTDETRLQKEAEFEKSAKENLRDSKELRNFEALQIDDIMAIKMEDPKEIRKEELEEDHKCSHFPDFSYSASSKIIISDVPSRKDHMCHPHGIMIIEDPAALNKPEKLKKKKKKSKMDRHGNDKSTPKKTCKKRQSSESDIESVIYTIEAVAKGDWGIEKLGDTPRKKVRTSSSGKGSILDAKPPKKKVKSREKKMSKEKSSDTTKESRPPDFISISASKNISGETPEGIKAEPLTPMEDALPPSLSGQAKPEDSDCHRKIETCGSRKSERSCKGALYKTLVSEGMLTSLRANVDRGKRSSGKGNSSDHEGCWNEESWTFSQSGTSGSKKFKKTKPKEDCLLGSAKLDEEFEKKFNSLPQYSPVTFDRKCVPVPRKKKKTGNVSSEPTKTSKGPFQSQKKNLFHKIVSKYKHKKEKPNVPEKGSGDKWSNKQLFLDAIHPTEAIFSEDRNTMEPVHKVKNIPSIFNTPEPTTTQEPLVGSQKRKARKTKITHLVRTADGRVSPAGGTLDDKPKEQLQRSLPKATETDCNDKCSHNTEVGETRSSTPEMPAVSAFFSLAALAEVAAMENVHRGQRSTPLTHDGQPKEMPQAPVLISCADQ
UniProt Q9UHQ4: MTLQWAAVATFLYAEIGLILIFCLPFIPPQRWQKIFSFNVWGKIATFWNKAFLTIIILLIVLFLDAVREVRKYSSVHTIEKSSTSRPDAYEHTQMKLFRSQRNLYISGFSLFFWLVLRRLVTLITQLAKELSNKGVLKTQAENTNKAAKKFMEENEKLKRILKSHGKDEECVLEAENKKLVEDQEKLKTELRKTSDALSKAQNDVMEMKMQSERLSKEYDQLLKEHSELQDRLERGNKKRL
UniProt Q9P281: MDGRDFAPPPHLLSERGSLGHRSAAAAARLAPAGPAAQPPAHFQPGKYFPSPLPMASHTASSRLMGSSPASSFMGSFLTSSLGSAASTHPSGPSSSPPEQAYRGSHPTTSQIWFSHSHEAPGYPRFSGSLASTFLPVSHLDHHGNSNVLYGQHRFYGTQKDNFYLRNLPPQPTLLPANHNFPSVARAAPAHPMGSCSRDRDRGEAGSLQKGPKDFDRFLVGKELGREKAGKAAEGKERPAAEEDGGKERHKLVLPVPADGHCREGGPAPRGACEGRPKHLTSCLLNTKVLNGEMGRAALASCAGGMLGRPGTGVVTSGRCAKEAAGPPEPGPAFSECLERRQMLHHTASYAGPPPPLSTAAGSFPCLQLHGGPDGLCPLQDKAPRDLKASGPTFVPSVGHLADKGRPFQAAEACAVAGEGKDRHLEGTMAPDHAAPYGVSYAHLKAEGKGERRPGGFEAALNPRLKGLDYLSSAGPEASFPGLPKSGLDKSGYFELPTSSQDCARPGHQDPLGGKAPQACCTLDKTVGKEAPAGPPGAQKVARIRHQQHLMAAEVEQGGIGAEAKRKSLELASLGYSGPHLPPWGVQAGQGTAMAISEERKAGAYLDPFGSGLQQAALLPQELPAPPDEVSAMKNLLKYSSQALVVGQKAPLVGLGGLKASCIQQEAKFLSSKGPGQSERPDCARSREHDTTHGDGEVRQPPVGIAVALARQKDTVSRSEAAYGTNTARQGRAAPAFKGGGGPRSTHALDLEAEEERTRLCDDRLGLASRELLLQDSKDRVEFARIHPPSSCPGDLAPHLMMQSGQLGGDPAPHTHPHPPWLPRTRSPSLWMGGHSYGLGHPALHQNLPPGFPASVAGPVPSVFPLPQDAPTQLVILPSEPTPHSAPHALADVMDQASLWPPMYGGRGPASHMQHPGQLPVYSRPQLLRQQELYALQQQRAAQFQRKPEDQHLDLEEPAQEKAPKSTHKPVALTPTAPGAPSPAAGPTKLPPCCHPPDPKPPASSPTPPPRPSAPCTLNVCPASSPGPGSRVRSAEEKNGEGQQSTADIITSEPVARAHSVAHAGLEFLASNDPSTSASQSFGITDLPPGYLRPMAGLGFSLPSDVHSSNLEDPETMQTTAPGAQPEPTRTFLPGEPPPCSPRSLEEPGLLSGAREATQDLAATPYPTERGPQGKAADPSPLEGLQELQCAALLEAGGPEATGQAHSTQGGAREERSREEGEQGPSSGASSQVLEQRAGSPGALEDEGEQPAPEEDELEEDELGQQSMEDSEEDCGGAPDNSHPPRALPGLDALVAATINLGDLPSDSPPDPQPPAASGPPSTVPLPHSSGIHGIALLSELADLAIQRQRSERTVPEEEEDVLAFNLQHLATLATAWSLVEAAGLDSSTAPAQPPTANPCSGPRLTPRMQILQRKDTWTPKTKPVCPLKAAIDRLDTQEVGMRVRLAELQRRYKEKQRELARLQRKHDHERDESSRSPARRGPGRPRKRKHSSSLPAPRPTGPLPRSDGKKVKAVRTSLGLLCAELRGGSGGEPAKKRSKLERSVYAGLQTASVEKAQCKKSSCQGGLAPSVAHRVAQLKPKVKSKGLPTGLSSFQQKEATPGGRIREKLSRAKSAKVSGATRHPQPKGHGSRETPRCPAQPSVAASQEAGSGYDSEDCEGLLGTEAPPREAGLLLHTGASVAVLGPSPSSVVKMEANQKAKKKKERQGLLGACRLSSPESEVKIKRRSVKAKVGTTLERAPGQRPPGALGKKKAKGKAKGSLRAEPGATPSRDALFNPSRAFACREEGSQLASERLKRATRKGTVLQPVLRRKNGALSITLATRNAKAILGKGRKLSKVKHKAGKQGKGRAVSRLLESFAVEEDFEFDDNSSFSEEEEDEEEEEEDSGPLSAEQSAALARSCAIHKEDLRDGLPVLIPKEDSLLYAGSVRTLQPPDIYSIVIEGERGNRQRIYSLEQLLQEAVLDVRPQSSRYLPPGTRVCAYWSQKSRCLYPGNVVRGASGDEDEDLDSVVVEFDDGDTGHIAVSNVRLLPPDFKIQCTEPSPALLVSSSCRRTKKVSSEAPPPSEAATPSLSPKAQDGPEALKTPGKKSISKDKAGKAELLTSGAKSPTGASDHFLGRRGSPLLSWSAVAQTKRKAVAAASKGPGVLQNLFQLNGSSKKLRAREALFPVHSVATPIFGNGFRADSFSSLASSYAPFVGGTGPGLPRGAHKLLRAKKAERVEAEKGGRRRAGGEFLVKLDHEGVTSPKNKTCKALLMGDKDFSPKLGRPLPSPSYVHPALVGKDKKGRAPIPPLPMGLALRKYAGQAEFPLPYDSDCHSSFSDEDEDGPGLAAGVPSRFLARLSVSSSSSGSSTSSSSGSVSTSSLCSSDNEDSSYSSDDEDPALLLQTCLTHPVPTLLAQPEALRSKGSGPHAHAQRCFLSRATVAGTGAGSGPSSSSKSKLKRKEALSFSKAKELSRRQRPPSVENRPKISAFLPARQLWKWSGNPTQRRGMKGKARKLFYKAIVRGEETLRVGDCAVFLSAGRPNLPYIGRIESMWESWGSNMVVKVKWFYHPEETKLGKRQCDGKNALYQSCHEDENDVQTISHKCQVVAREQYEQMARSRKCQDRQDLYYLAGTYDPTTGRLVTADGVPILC
UniProt Q13535: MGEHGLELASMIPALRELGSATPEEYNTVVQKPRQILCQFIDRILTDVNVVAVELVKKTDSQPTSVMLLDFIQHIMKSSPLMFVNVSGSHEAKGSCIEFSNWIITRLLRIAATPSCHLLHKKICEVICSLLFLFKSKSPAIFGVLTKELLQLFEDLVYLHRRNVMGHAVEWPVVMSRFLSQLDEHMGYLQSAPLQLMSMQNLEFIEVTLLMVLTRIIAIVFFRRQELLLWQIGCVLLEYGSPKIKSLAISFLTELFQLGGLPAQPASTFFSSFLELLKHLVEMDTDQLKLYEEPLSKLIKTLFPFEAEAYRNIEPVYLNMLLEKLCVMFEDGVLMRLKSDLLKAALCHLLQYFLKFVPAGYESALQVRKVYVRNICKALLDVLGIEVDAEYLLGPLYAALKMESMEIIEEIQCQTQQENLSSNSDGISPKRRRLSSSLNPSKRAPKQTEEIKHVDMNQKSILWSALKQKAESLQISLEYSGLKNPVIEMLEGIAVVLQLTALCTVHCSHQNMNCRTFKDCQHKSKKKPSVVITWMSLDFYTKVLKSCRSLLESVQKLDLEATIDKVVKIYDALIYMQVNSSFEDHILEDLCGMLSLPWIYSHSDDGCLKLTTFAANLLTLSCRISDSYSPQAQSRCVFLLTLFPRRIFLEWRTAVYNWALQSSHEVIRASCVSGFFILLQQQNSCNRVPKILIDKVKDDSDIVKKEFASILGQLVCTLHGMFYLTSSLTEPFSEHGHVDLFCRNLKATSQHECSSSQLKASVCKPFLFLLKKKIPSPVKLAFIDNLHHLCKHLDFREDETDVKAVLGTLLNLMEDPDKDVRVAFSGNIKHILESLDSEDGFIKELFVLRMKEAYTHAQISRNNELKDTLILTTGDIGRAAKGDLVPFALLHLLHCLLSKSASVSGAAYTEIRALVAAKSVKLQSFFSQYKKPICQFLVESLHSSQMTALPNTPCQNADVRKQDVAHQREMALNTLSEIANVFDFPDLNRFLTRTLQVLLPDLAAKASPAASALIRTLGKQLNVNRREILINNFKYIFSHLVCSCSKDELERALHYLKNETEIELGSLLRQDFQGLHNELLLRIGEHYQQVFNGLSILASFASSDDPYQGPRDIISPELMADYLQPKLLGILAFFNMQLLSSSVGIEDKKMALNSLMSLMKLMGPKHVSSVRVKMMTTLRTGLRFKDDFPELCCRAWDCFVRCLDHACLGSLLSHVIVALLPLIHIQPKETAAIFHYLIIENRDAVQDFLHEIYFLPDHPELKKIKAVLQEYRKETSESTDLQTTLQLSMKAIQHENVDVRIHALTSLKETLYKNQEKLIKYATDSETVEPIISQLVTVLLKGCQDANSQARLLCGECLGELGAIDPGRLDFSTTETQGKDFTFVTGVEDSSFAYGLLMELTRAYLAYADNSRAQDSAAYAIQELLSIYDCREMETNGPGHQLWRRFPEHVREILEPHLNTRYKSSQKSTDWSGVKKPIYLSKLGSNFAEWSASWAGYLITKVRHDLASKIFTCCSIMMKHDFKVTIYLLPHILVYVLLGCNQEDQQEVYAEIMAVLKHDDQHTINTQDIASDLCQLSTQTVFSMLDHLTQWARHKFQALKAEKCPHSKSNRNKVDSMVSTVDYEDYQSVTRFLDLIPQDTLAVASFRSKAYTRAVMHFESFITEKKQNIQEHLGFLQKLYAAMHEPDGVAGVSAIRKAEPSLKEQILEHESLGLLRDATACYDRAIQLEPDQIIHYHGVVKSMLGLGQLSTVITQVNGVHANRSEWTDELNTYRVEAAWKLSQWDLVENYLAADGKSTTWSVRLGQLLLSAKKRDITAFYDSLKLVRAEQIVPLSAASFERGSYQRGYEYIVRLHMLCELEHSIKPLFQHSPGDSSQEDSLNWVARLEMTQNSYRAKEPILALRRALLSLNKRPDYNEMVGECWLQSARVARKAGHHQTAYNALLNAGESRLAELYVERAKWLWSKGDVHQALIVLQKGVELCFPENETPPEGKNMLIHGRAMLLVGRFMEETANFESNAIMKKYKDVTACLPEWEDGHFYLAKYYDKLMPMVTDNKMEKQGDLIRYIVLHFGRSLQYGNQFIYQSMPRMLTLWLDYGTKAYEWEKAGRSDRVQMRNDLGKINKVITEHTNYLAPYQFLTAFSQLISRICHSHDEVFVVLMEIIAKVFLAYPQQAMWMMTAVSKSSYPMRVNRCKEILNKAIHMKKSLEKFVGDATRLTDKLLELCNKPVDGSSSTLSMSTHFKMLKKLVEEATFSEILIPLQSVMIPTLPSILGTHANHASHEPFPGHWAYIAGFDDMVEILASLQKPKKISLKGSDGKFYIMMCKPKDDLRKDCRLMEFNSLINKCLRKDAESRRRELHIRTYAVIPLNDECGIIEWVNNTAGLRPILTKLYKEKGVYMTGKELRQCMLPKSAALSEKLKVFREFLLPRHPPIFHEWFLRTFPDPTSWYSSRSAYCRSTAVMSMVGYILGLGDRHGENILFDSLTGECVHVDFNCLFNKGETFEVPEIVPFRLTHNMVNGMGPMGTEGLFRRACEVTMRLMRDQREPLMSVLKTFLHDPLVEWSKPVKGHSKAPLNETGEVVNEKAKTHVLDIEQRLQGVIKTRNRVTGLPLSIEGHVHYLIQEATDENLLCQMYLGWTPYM
UniProt Q9H6U6, 255-274: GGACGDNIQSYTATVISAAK

Row | Target | log2 mean competition ratio
1 | BICD2 C754 (UniProt Q8TD16) | 0.151
2 | ATG2A C1870 (UniProt Q2TAZ0) | -0.456
3 | AURKB C170 (UniProt Q96GD4) | -0.154
4 | ATRX C450 (UniProt P46100) | 0.197
5 | ATP2B4 C537 (UniProt P23634) | -0.0503
6 | BAZ1A C764 (UniProt Q9NRL2) | 0.116
7 | BBX C870 (UniProt Q8WY36) | -0.0949
8 | BCAP29 C171 (UniProt Q9UHQ4) | -0.169
9 | ATAD5 C1720 (UniProt Q96QE3) | 0.0676
10 | BDH1 C221 (UniProt Q02338) | -0.306
11 | ASXL2 C1225 (UniProt Q76L83) | -0.435
12 | BAHCC1 C683 (UniProt Q9P281) | -0.0585
13 | ATR C753 (UniProt Q13535) | -0.0226
14 | BAIAP2 C195 (UniProt Q9UQB8) | 0.105
15 | ASPM C95 (UniProt Q8IZT6) | -0.203
16 | ATR C1721 (UniProt Q13535) | 0.0835
17 | BIRC6 C1236 | -0.481
18 | BCORL1 C617 (UniProt Q5H9F3) | 0.26
19 | ATM C2704 (UniProt Q13315) | -0.0123
20 | BCAS3 C258 (UniProt Q9H6U6) | 0.822

same assay, conditions: 200 µM; treatment time: 4 h; cell line lysate: HEK293T

Row | Target | log2 mean competition ratio
21 | BICD2 C754 (UniProt Q8TD16) | 0.166
22 | ATG2A C1870 (UniProt Q2TAZ0) | 0.271
23 | AURKB C170 (UniProt Q96GD4) | 0.275
24 | ATRX C450 (UniProt P46100) | -0.306
25 | ATP2B4 C537 (UniProt P23634) | -0.183
26 | BAZ1A C764 (UniProt Q9NRL2) | 0.223
27 | BBX C870 (UniProt Q8WY36) | 0.505
28 | BCAP29 C171 (UniProt Q9UHQ4) | -0.0966
29 | ATAD5 C1720 (UniProt Q96QE3) | 0.0212
30 | BDH1 C221 (UniProt Q02338) | 0.187
31 | ASXL2 C1225 (UniProt Q76L83) | 0.163
32 | BAHCC1 C683 (UniProt Q9P281) | 0.218
33 | ATR C753 (UniProt Q13535) | 0.00936
34 | BAIAP2 C195 (UniProt Q9UQB8) | 0.0241
35 | ASPM C95 (UniProt Q8IZT6) | 0.117
36 | ATR C1721 (UniProt Q13535) | 0.185
37 | BIRC6 C1236 | 0.117
38 | BCORL1 C617 (UniProt Q5H9F3) | -0.013
39 | ATM C2704 (UniProt Q13315) | -0.00461
40 | BCAS3 C258 (UniProt Q9H6U6) | -0.156
